Paper PMC8901441
These are yes or no findings as the source states them, for the method shown. Binding seen in cells or lysates may run through a third protein. Where a sequence is shown, tags or fusion partners need not be part of it.

Amino acid sequences for entries named in this document (tags omitted).
UniProt Q07812: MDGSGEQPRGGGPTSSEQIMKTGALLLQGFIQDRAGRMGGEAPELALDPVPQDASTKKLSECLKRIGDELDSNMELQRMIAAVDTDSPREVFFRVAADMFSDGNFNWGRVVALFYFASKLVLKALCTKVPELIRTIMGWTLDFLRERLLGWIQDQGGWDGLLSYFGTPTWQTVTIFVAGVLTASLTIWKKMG

Target: T1, mEGFP-BAK (UniProt Q16611)
T1 sequence: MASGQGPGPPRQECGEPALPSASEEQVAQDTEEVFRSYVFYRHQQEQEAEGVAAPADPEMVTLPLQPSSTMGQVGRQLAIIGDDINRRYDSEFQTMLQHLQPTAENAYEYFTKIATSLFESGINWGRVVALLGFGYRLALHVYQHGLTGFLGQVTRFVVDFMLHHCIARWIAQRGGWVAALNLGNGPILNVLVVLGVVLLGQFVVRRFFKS
Assay: co-IP; as a5, but control (untreated) cells

BAX (endogenous, BAK KO U2OS cells) (from UniProt Q07812 1-192)
binding: no binding (condition: control (untreated) cells)
